{"source": "PubChem BioAssay AID1671195 (Yale University, 2021)", "purpose": "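Knockdowns that increase or decrease uptake of fluorescent LDL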 (primary screen)", "cell system": "human Huh7 hepatoma cells", "knock-down reagent": "siRNA pool against human genes, 18 nM", "duration": "about 2 to 2.5 days of knockdown, then 8 h LDL uptake", "conditions": "DiI-labelled LDL at 30 µg/ml for 8 h, in lipoprotein-deficient serum medium", "detection": "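Fluorescent LDL signal imaged in cells, scaled to the plate median, robust z-score for each replicate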", "reading the numbers": "robust z-score: higher = more LDL uptake after knockdown", "rule for the call": "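a gene counts as active if at least two replicate z-scores exceed ±2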", "note": "This is one part, drawn at random, of about 22,000 deposited reagents. About 1,510 of them (6.9%) count as active. 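Active includes knockdowns raising or lowering LDL uptake; positive z-scores mean more uptake, negative mean less.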"}
{"gene symbol": "CD1E", "robust z-score, replicate 1": -0.897, "robust z-score, replicate 2": -0.893, "robust z-score, replicate 3": -1.17, "call": "inactive"}
{"gene symbol": "TOB1", "robust z-score, replicate 1": 1.81, "robust z-score, replicate 2": 0.889, "robust z-score, replicate 3": 0.744, "call": "inactive"}
{"gene symbol": "OCLN", "robust z-score, replicate 1": -0.00124, "robust z-score, replicate 2": -0.0384, "robust z-score, replicate 3": 0.113, "call": "inactive"}
{"gene symbol": "RALA", "robust z-score, replicate 1": 1.38, "robust z-score, replicate 2": 0.573, "robust z-score, replicate 3": 0.807, "call": "inactive"}
{"gene symbol": "LOC388568 (retired record)", "robust z-score, replicate 1": -1.56, "robust z-score, replicate 2": -0.834, "robust z-score, replicate 3": -1.58, "call": "inactive"}
{"gene symbol": "MAFK", "robust z-score, replicate 1": -0.996, "robust z-score, replicate 2": -1.55, "robust z-score, replicate 3": -1.74, "call": "inactive"}
{"gene symbol": "MALSU1", "robust z-score, replicate 1": -0.194, "robust z-score, replicate 2": 0.915, "robust z-score, replicate 3": 0.179, "call": "inactive"}
{"gene symbol": "CXCR5", "robust z-score, replicate 1": 1.21, "robust z-score, replicate 2": 0.832, "robust z-score, replicate 3": 0.742, "call": "inactive"}
{"gene symbol": "LOC441848 (retired record)", "robust z-score, replicate 1": -0.106, "robust z-score, replicate 2": 0.674, "robust z-score, replicate 3": 0.291, "call": "inactive"}
{"gene symbol": "SLC16A2", "robust z-score, replicate 1": 0.943, "robust z-score, replicate 2": 1.98, "robust z-score, replicate 3": 1.09, "call": "inactive"}
{"gene symbol": "TCAIM", "robust z-score, replicate 1": -1.24, "robust z-score, replicate 2": -1.19, "robust z-score, replicate 3": -1.14, "call": "inactive"}
{"gene symbol": "STARD10", "robust z-score, replicate 1": 0.705, "robust z-score, replicate 2": 0.719, "robust z-score, replicate 3": 0.0517, "call": "inactive"}
{"gene symbol": "RHOJ", "robust z-score, replicate 1": 0.669, "robust z-score, replicate 2": 0.206, "robust z-score, replicate 3": 1.47, "call": "inactive"}
{"gene symbol": "SETBP1", "robust z-score, replicate 1": 0.185, "robust z-score, replicate 2": -0.0685, "robust z-score, replicate 3": -0.0711, "call": "inactive"}
{"gene symbol": "IFT88", "robust z-score, replicate 1": -2.01, "robust z-score, replicate 2": -1.41, "robust z-score, replicate 3": -2.01, "call": "active"}
{"gene symbol": "B3GALT4", "robust z-score, replicate 1": -1.02, "robust z-score, replicate 2": -1.48, "robust z-score, replicate 3": -1.16, "call": "inactive"}
{"gene symbol": "TENM3-AS1", "robust z-score, replicate 1": -0.493, "robust z-score, replicate 2": -0.331, "robust z-score, replicate 3": -0.563, "call": "inactive"}
{"gene symbol": "PIMREG", "robust z-score, replicate 1": -1.16, "robust z-score, replicate 2": -0.716, "robust z-score, replicate 3": -1.29, "call": "inactive"}
{"gene symbol": "ZNF34", "robust z-score, replicate 1": 0.0486, "robust z-score, replicate 2": 0.241, "robust z-score, replicate 3": -0.0688, "call": "inactive"}
{"gene symbol": "CRK", "robust z-score, replicate 1": 0.99, "robust z-score, replicate 2": 1.05, "robust z-score, replicate 3": -0.306, "call": "inactive"}
{"gene symbol": "NR1D1", "robust z-score, replicate 1": -0.942, "robust z-score, replicate 2": -0.346, "robust z-score, replicate 3": -0.127, "call": "inactive"}
{"gene symbol": "DEFA6", "robust z-score, replicate 1": 0.477, "robust z-score, replicate 2": 0.856, "robust z-score, replicate 3": -1.33, "call": "inactive"}
{"gene symbol": "TMOD3", "robust z-score, replicate 1": 0.281, "robust z-score, replicate 2": 0.0696, "robust z-score, replicate 3": 0.234, "call": "inactive"}
{"gene symbol": "DUSP18", "robust z-score, replicate 1": 0.441, "robust z-score, replicate 2": 0.167, "robust z-score, replicate 3": 0.114, "call": "inactive"}
{"gene symbol": "OTOR", "robust z-score, replicate 1": 1.07, "robust z-score, replicate 2": 1.59, "robust z-score, replicate 3": -0.126, "call": "inactive"}
{"gene symbol": "PLPPR4", "robust z-score, replicate 1": 1.49, "robust z-score, replicate 2": 3.53, "robust z-score, replicate 3": 3.31, "call": "active"}
{"gene symbol": "PRKCD", "robust z-score, replicate 1": -0.514, "robust z-score, replicate 2": 0.0399, "robust z-score, replicate 3": -1.25, "call": "inactive"}
{"gene symbol": "SLC25A34", "robust z-score, replicate 1": 0.701, "robust z-score, replicate 2": -1.01, "robust z-score, replicate 3": -2.97, "call": "inactive"}
{"gene symbol": "TMEM164", "robust z-score, replicate 1": 1.14, "robust z-score, replicate 2": 1.45, "robust z-score, replicate 3": 1.22, "call": "inactive"}
{"gene symbol": "CFAP126", "robust z-score, replicate 1": 1.83, "robust z-score, replicate 2": 1.37, "robust z-score, replicate 3": 1.49, "call": "inactive"}

Targets listed so far whose target name starts with P or p:
{"gene symbol": "PIMREG", "robust z-score, replicate 1": -1.16, "robust z-score, replicate 2": -0.716, "robust z-score, replicate 3": -1.29, "call": "inactive"}
{"gene symbol": "PLPPR4", "robust z-score, replicate 1": 1.49, "robust z-score, replicate 2": 3.53, "robust z-score, replicate 3": 3.31, "call": "active"}
{"gene symbol": "PRKCD", "robust z-score, replicate 1": -0.514, "robust z-score, replicate 2": 0.0399, "robust z-score, replicate 3": -1.25, "call": "inactive"}
